Experimental data as given in US7183295B2, “PPAR-activating compound and pharmaceutical composition comprising the compound” (Kowa Co., Ltd., priority 2003, dated 2007).
Some results were stated once for a whole list of compounds, not compound by compound.

Molecular target: T1, human PPARα (166–467aa) ligand binding domain (Homo sapiens, UniProt Q07869)
T1 construct: human PPARα (166–467aa); expressed in transfected cells; host or cells: COS-7
T1 sequence (Q07869 166-467): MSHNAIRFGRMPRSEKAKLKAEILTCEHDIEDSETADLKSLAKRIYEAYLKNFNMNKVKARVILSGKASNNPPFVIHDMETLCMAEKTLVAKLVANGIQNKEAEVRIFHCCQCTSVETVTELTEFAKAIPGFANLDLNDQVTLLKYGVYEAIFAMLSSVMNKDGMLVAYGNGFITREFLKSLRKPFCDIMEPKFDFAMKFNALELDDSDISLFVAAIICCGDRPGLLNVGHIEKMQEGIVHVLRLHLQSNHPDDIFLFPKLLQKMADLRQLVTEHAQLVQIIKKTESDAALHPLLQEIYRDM
Experiment: PPAR transfection (Gal4-LBD luciferase reporter) assay, hPPARα
Format: cell-based
Conditions: hPPARα versus hPPARγ and hPPARδ
Protocol: COS-7 cells, which is African green monkey kidney cell line, were used for all transfection assays. Cells were cultured in DMEM medium supplemented with 10% fetal bovine serum, glutamic acid, and an antibiotic under humidified 5% CO2 atmosphere.
Cells were transfected by lipofectamine reagent with a mixture containing expression plasmid, firefly luciferase reporter plasmid. And a β-galactosidase expression plasmid used as an internal control for transfection efficiency.
Transiently transfected cells were incubated with DMEM with 0.2% FCS with or without compound. And after 16 hours, luciferase activity and β-galactosidase activity of cell lysate were measured.
Each compound was dissolved in and diluted with dimethyl sulfoxide (DMSO), and the DMSO concentration of the DMEM medium (containing 0.2% serum) was adjusted to 0.1% upon treatment of cells.

Compound	hPPARα selectivity at EC50 values
CC(C)(Oc1ccc(CCCN(CCc2ccccc2)c2nc3ccccc3s2)cc1)C(=O)O [Compound A]	less than 10 fold
CC(C)(Oc1ccc(CCCN(CCc2ccccc2)C(=O)c2nc3ccccc3s2)cc1)C(=O)O [Compound B, reference compound]	less than 10 fold
